Source: PubChem BioAssay AID1259259 (Sanger Institute, 2017)

Screen: 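Synthetic lethal kinase partners of anchor drugs in colorectal cancer cells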 (primary screen)
Cell system: SW1463 human colorectal cancer cells
Knock-down reagent: siRNA pool against human genes
Challenge: DMSO vehicle, or one anchor drug: BYL719 at 1 µM, cetuximab at 5 µg/ml, or trametinib at 10 nM
Read-out: 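Viability relative to control pool 2 (non-targeting) averaged over replicates, robust z-score for knock-down with no drug, and for each anchor drug the mean synergy score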
Reading the numbers: robust z-score, knock-down alone: higher = more viable cells after knock-down; viability, knock-down alone: higher = more viable cells; synergy score with BYL719 and synergy score with cetuximab: higher = stronger synergy (synthetic lethal) with drug
Hit rule: 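a robust z-score under -3 for knock-down with no drug marks the gene as essential, meaning viability loss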
Meaning of the calls: active = essential: viability loss from knock-down alone; inactive = no change from knock-down alone
The deposit covers 794 reagents; shown is an unselected part. 9 of them (1.1%) were called active. 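Calls rest on knock-down alone, not drug synergy; viability values seem capped at 1.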 A number with no mark means an inactive call. Further read-outs or replicates are left out here. The record does not give: the amount of reagent, the time to read-out.

no.	Target gene	robust z-score, knock-down alone	viability, knock-down alone (fraction of control)	synergy score with BYL719	synergy score with cetuximab
1	CDKN1B (cyclin dependent kinase inhibitor 1B)	-0.595	0.889	-0.0818	-0.0576
2	PRKCSH (PRKCSH beta subunit of glucosidase II)	-1.01	0.863	0.0397	-0.00641
3	PIK3CA	0.898	0.985	0.00454	0.0149
4	PHKA1 (phosphorylase kinase regulatory subunit alpha 1)	0.026	0.929	-0.0632	0.138
5	NUP62 (nucleoporin 62)	-0.109	0.921	-0.00751	-0.0488
6	CTNNB1 (catenin beta 1)	-2.71	0.754	0.1	0.0688
7	PKN1 (protein kinase N1)	0.445	0.956	0.00921	0.131
8	NUP98 (nucleoporin 98 and 96 precursor)	-0.926	0.868	0.0277	0.219
9	DLG4 (discs large MAGUK scaffold protein 4)	0.831	0.981	-0.00138	-0.0265
10	MAP2K6 (mitogen-activated protein kinase kinase 6)	1.13	1	0.0599	0.102
11	PDIK1L (PDLIM1 interacting kinase 1 like)	-0.634	0.887	-0.0469	0.0297
12	AK5 (adenylate kinase 5)	-1.17	0.852	-0.148	-0.119
13	PIK3CD	-0.142	0.919	-0.0815	0.0147
14	MAK (male germ cell associated kinase)	0.249	0.944	0.036	-0.082
15	ADGRL2 (adhesion G protein-coupled receptor L2)	0.827	0.981	0.136	0.103
16	CHEK2 (checkpoint kinase 2)	0.75	0.976	0.0263	0.186
17	ULK2 (unc-51 like autophagy activating kinase 2)	-1.31	0.844	-0.0997	-0.179

Entries above whose target name begins with P or p:
Target gene	robust z-score, knock-down alone	viability, knock-down alone (fraction of control)	synergy score with BYL719	synergy score with cetuximab
PRKCSH (PRKCSH beta subunit of glucosidase II)	-1.01	0.863	0.0397	-0.00641
PIK3CA	0.898	0.985	0.00454	0.0149
PHKA1 (phosphorylase kinase regulatory subunit alpha 1)	0.026	0.929	-0.0632	0.138
PKN1 (protein kinase N1)	0.445	0.956	0.00921	0.131
PDIK1L (PDLIM1 interacting kinase 1 like)	-0.634	0.887	-0.0469	0.0297
PIK3CD	-0.142	0.919	-0.0815	0.0147

Continued.
no.	Target gene	robust z-score, knock-down alone	viability, knock-down alone (fraction of control)	synergy score with BYL719	synergy score with cetuximab
18	CRIM1 (cysteine rich transmembrane BMP regulator 1)	-0.116	0.92	0.0732	-0.0639
19	PRKACG (protein kinase cAMP-activated catalytic subunit gamma)	1.13	1	0.0364	-0.0272
20	TTBK2 (tau tubulin kinase 2)	-0.533	0.893	0.0391	-0.048
21	TRIB2 (tribbles pseudokinase 2)	-0.876	0.871	-0.0294	-0.0677
22	AMER1 (APC membrane recruitment protein 1)	0.758	0.976	0.0573	0.169
23	CIT (citron rho-interacting serine/threonine kinase)	-1.1	0.857	0.122	0.254
24	TSSK1B (testis specific serine kinase 1B)	0.219	0.942	-0.0105	0.116
25	PRKCE (protein kinase C epsilon)	1.13	1	0.0544	0.136
26	MECOM (MDS1 and EVI1 complex locus)	-0.68	0.884	-0.019	0.00186
27	PIP5K1A (phosphatidylinositol-4-phosphate 5-kinase type 1 alpha)	-1.93	0.804	-0.0427	0.0324
28	PIP5KL1 (phosphatidylinositol-4-phosphate 5-kinase like 1)	-0.543	0.893	0.0274	0.0249
29	UCKL1 (uridine-cytidine kinase 1 like 1)	-0.486	0.896	0.0101	0.275
30	PKMYT1 (protein kinase, membrane associated tyrosine/threonine 1)	-0.112	0.92	0.0915	0.108
31	ZC3H11A (zinc finger CCCH-type containing 11A)	0.361	0.951	-0.0491	0.0373
32	IGF2R (insulin like growth factor 2 receptor)	1.13	1	0	-0.0272
33	MAP3K2 (mitogen-activated protein kinase kinase kinase 2)	0.605	0.967	-0.0335	-0.0598
34	PANK2 (pantothenate kinase 2)	-0.356	0.905	-0.0744	-0.111
